Laboratory results: article PMC11349179, “Comparative analysis of the LARP1 C-terminal DM15 region through Coelomate evolution” (PLOS ONE, 2024)

Chains of the proteins cited; added tags and fusions are not shown.
UniProt A0A0B4K7Y7, entry or part of it: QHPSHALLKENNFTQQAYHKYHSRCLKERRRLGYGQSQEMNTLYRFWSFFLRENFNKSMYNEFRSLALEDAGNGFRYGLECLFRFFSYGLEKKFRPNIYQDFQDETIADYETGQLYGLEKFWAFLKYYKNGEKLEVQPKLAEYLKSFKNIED

Assays:
Experiment in all cases: EMSA
DmDM15 (fruit fly) = DmDM15 (fruit fly) (UniProt A0A0B4K7Y7); details: uncapped, 5' phosphate (PNK), no cap, EMSA: 20 mM Tris-HCl pH 8, 150 mM NaCl, 10% glycerol, 1 mM DTT, 0.5 ug tRNA, 1 ug BSA, pM RNA (95 C, snap cooled), 0.5-1 h on ice, native 7% PAGE, 0.5X TBE, recombinant protein, protein details: His6-MBP removed by TEV, label: 5' 32P
DrDM15 (zebrafish) = DrDM15 (zebrafish) (UniProt F1R0U5); details: EMSA: 20 mM Tris-HCl pH 8, 150 mM NaCl, 10% glycerol, 1 mM DTT, 0.5 ug tRNA, 1 ug BSA, pM RNA (95 C, snap cooled), native 7% PAGE, 0.5X TBE, recombinant protein
HsDM15 (Homo sapiens) = details: EMSA: 20 mM Tris-HCl pH 8, 150 mM NaCl, 10% glycerol, 1 mM DTT, 0.5 ug tRNA, 1 ug BSA, pM RNA (95 C, snap cooled), native 7% PAGE, 0.5X TBE, recombinant protein, protein details: His6-MBP removed by TEV
[1] = uncapped, 5' phosphate (PNK), no cap, 0.5-1 h on ice, label: 5' 32P
[2] = uncapped, enhanced vs PABPC1, 5' phosphate (PNK), no cap, 0.5-1 h on ice, label: 5' 32P
[3] = 5' m7G cap (Vaccinia capping), 0.5-1 h on …, label: 32P in cap

Row | Sequence | binding result (DmDM15 (fruit fly)) | binding result (DrDM15 (zebrafish); [1]) | binding result (HsDM15 (Homo sapiens); [1]) | binding result (DmDM15 (fruit fly); enhanced vs PABPC1) | binding result (DrDM15 (zebrafish); [2]) | binding result (HsDM15 (Homo sapiens); [2]) | binding result (DrDM15 (zebrafish); [3]) | binding result (HsDM15 (Homo sapiens); [3])
1 | CCUUCUCCCCGGCGGUUAGUGCUGAGAGUGCGGAGUGUGUGC [HsPABPC1 5' UTR, uncapped] | binds more weakly | binds more weakly | binds more weakly | – | – | – | – | –
2 | CCUUCUCCCCGCUUAUCUCUUUGAGAUAAAUGCAUAUUUUUU [HsPABPC1_Stem, uncapped] | – | – | – | binds | binds | binds | – | –
3 | GGAGAAAAGGGCUUAUCUCUUUGAGAUAAAUGCAUAUUUUUU [ΔTOP_HsRPS6_Stem, uncapped] | binds more weakly | binds more weakly | binds more weakly | – | – | – | – | –
4 | GAAAAGCCAUUGUCAGCCGACGAAGUGCUUUAACCCAAACUA [ΔTOP_DmRPL30 42-mer, capped] | – | – | – | – | – | – | no binding | no binding
5 | CCUCUUUUCCGCUUAUCUCUUUGAGAUAAAUGCAUAUUUUUU [HsRPS6_Stem, uncapped] | binds | binds | binds | – | – | – | – | –
6 | CCUCUUUUCCGUGGCGCCUCGGAGGCGUUCAGCUGCUUCAAG [HsRPS6 5' UTR, uncapped] | binds | binds | binds | – | – | – | – | –

For some assays here: Negatives hold for the conditions tested. At least one verdict rests on a figure or table, not on a statement of the authors. Construct, isoform or probe ends are uncertain for at least one entry. Weaker means in comparison with the reference protein, sequence or condition of that experiment.
